Reference: article PMC12254266, “Multicolored sequential resonance energy transfer for detection of simultaneous ligand binding at G protein-coupled receptors” (Nature Communications, 2025)
Several values for one entry are separate records, joined by “and”; a condition that tells them apart may be missing. Identical values can stand only once. The source gives many values for each of these; only a part stands here.

By UniProt entry, the sequences of proteins in these tests, tags left out.
UniProt O14842, whole entry: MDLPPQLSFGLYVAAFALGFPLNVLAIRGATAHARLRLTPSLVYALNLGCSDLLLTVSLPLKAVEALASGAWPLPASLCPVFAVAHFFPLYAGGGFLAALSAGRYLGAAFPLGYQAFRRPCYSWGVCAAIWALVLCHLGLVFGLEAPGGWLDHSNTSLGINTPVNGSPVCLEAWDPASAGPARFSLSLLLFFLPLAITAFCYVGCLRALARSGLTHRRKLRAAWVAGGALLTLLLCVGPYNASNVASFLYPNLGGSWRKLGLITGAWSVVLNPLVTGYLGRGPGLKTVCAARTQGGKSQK

Target: FFA1 (Homo sapiens, UniProt O14842)
Assay: Ca2+ mobilisation (Fura2) in Flp-In T-REx 293 cells expressing Nluc-FFA1, FFA1-Nluc or untagged FFA1
Type: cell-based
Parameters: expressed in transfected cells
Details: technical replicates
Protocol: Nluc-FFA1, FFA1-Nluc or untagged FFA1 Flp-In T-REx 293 cells were plated at 50,000 cells per well in poly-D-lysine coated black clear bottom 96-well plates. Cells were then cultured for 24 h until reaching confluency before culture medium was replaced with medium containing 100 ng/mL of doxycycline to induce receptor expression. Cells were cultured for a further 24 h before the assay. On the day of the assay culture medium was removed and replaced with medium containing 3 μM Fura2-AM Ca^2+ dye. […] Fura2 fluorescent emission at 520 nm following excitation with each of 340 and 380 nm was measured in regular intervals both before and after adding test compounds for a total of 90 s per well. Calcium responses were determined by taking the peak 340/380 ratio after first subtracting the ratios obtained prior to addition of test compound.

[1] = FFA1-Nluc cells, log[ligand] -5
[2] = FFA1-Nluc cells, log[ligand] -5.5
[3] = FFA1-Nluc cells, log[ligand] -6
[4] = FFA1-Nluc cells, log[ligand] -7
[5] = FFA1-Nluc cells, log[ligand] -8
[6] = FFA1-Nluc cells, log[ligand] -9
[7] = Nluc-FFA1 cells, log[ligand] -5
[8] = Nluc-FFA1 cells, log[ligand] -5.5
[9] = Nluc-FFA1 cells, log[ligand] -6
[10] = Nluc-FFA1 cells, log[ligand] -7
[11] = Nluc-FFA1 cells, log[ligand] -8
[12] = Nluc-FFA1 cells, log[ligand] -9
[13] = untagged FFA1 cells, log[ligand] -5
[14] = untagged FFA1 cells, log[ligand] -5.5
[15] = untagged FFA1 cells, log[ligand] -7
[16] = untagged FFA1 cells, log[ligand] -8
[17] = untagged FFA1 cells, log[ligand] -9
[18] = FFA1-Nluc cells, log[ligand] -6.5
[19] = Nluc-FFA1 cells, log[ligand] -6.5

| SMILES | Ca2+ Response as a % of T360 Response [1] | Ca2+ Response as a % of T360 Response [2] | Ca2+ Response as a % of T360 Response [3] | Ca2+ Response as a % of T360 Response [4] | Ca2+ Response as a % of T360 Response [5] | Ca2+ Response as a % of T360 Response [6] | Ca2+ Response as a % of T360 Response [7] | Ca2+ Response as a % of T360 Response [8] | Ca2+ Response as a % of T360 Response [9] | Ca2+ Response as a % of T360 Response [10] | Ca2+ Response as a % of T360 Response [11] | Ca2+ Response as a % of T360 Response [12] | Ca2+ Response as a % of T360 Response [13] | Ca2+ Response as a % of T360 Response [14] | Ca2+ Response as a % of T360 Response [15] | Ca2+ Response as a % of T360 Response [16] | Ca2+ Response as a % of T360 Response [17] | Ca2+ Response as a % of T360 Response [18] | Ca2+ Response as a % of T360 Response [19] | other results |
| --- | --- | --- | --- | --- | --- | --- | --- | --- | --- | --- | --- | --- | --- | --- | --- | --- | --- | --- | --- | --- |
| Cc1cc(OCCCNC(=O)CCCN2\C(=C/C=C/C=C/C3=[N+](C)c4ccc(S(=O)(=O)[O-])cc4C3(C)C)C(C)(C)c3ccccc32)ccc1-c1cccc(COc2ccc(CCC(=O)O)c(F)c2)c1 [TUG-2591] | 68.93% and 73.22% and 61.06% | 41.09% and 71.64% and 77.29% and 74.38% and 76.92% and 72.09% and 67.98% and 51.71% and 49.07% | 54.48% and 75.91% and 69.33% and 65.03% and 75.11% and 54.57% and 73.73% and 47.15% and 50.90% | 31.25% and 30.59% and 16.69% and 61.42% and 48.71% and 54.98% and 29.06% and 25.44% | 4.10% and 5.51% and 0.62% and 4.15% and 13.51% and 3.03% and 16.28% and 0.32% and 0.34% | 0.15% and 2.67% and 3.34% and 7.47% and 0.86% and 0.22% | 61.66% and 51.52% and 46.84% and 86.56% and 82.15% and 71.83% and 71.15% and 53.72% | 62.71% and 47.16% and 58.62% and 85.53% and 80.90% and 77.51% and 55.09% and 51.22% | 62.82% and 60.50% and 58.53% and 87.03% and 71.98% and 71.50% and 53.51% and 60.26% and 56.70% | -1.53% | 10.54% and 11.17% and 19.68% and 8.20% and 7.07% and 9.22% and 0.11% and 1.85% and 0.30% | 4.50% and 4.79% and 3.13% and 2.97% and -0.0331% and -1.56% | 73.88% and 90.04% and 90.98% and 113.09% and 113.77% and 103.32% and 85.20% and 94.37% and 80.83% and 87.57% and 86.66% and 84.26% | 86.09% and 89.74% and 93.13% and 105.82% and 101.78% and 112.45% and 96.23% and 90.75% and 70.71% and 87.69% and 88.88% and 90.09% | 28.84% and 44.39% and 38.80% and 72.82% and 63.53% and 66.36% and 20.34% and 8.02% and 16.18% and 82.87% and 87.61% and 100.19% | -1.09% and -0.47% and 1.31% and 1.77% and 2.07% and 3.91% and -1.52% and -0.97% and -4.65% and 46.49% and 40.31% and 41.09% | -4.65% and -2.58% and -2.50% and -2.74% and -1.49% and 1.85% and 0.63% and 6.88% and 1.23% and 10.08% and 2.21% and 0.38% |  |  | Ca2+ Response as a % of T360 Response (untagged FFA1 cells, log[ligand] -6): 82.21% and 72.63% and 79.20% and 93.93% and 100.36% and 102.52% and 72.86% and 50.43% and 69.57% and 81.03% and 87.24% and 67.44% |
| COc1ccc(C(=O)N(CC(C)(C)CNc2ccc([N+](=O)[O-])c3nonc23)c2cccc(C)n2)c(N2CCC(COc3cccc(C(CC(=O)O)C4CC4)c3)CC2)c1.O=C(O)C(F)(F)F (stereo not shown) [TUG-2597] | 91.480% and 94.109% and 100.366% and 94.069% and 95.277% and 93.422% and 94.028% and 113.620% and 103.754% | 94.698% and 88.423% and 88.116% and 92.876% and 94.945% and 95.818% and 102.852% and 111.378% and 100.705% |  | 43.346% and 78.003% and 75.420% and 62.248% and 75.723% and 79.985% and 65.599% and 54.974% and 35.897% | 0.642% and 14.276% and 15.758% and 11.833% and 8.597% and 24.026% and 6.350% and -0.774% and -0.697% | 3.030% and 0.483% and 3.282% and 3.253% and 0.414% and 0.132% | 91.486% and 90.455% and 91.717% and 99.857% and 112.150% and 100.497% and 102.216% and 108.535% and 91.507% | 84.219% and 81.439% and 84.281% and 103.200% and 100.553% and 101.368% and 104.058% and 93.139% and 91.624% |  | 51.126% and 50.272% and 29.879% and 25.578% and 37.373% and 40.555% and 53.706% and 58.556% and 52.425% | 5.666% and 7.808% and 6.761% and 1.773% and 0.229% and 3.624% and 0.162% and -0.569% and -0.743% | 3.293% and 1.821% and 3.182% and -1.236% and -0.487% and -1.356% | 93.872% and 90.556% and 66.298% and 112.406% and 112.965% and 89.657% and 87.371% and 87.412% and 68.520% and 85.359% and 86.100% and 46.980% | 84.053% and 81.717% and 68.773% and 108.672% and 75.451% and 115.065% and 97.440% and 99.091% and 64.288% and 65.554% and 76.893% and 66.874% | 49.550% and 46.108% and 56.346% and 100.506% and 97.968% and 98.824% and 55.051% and 74.119% and 60.583% and 72.202% and 77.542% and 57.631% | -2.816% and -7.422% and -5.374% and 46.992% and 46.661% and 52.951% and 29.170% and 12.929% and 7.593% and 36.800% and 64.028% and 51.175% | -1.782% and -6.058% and -4.192% and 2.530% and -1.096% and -1.030% and 0.123% and -5.168% and 4.435% and 8.821% and 17.482% and 3.402% | 98.021% and 82.724% and 91.327% and 93.393% and 84.345% and 87.827% and 93.280% and 88.950% | 76.903% and 88.958% and 103.314% | Ca2+ Response as a % of T360 Response (FFA1-Nluc cells, log[ligand] -4.5): 93.567% and 85.081% and 86.451%; Ca2+ Response as a % of T360 Response (Nluc-FFA1 cells, log[ligand] -4.5): 79.418% and 81.527% and 72.333%; Ca2+ Response as a % of T360 Response (untagged FFA1 cells, log[ligand] -6.5): 78.172% and 61.250% and 82.900% and 119.828% and 106.853% and 110.898% and 74.754% and 61.438% and 77.189% and 86.036% and 78.906% and 65.876% |
| Cc1cc(OCCOCCNC(=O)CCCCCN2\C(=C/C=C/C=C/C3=[N+](C)c4ccc(S(=O)(=O)[O-])cc4C3(C)C)C(C)(C)c3ccccc32)ccc1-c1cccc(COc2ccc(CCC(=O)O)c(F)c2)c1 [TUG-2355] |  | -1.27% and 4.19% and 5.21% and -0.41% and 1.34% and 0.65% | 0.35% and 5.00% and 1.81% and -0.20% and 0.45% and 0.71% |  | -1.66% and 1.68% and -1.19% and 1.00% and 0.97% and 1.13% |  |  | 20.05% and -0.41% and 1.34% and 0.65% and 17.83% and 27.69% | 2.11% and -0.20% and 0.45% and 0.71% and 5.00% and 8.24% |  | 2.24% and 3.57% |  |  |  |  |  |  | 4.42% and 1.45% and 1.13% and -0.18% and -0.52% and -0.47% | 1.53% and -0.18% and -0.52% and -0.47% and 1.48% and 8.34% |  |
